{"sequences": {"note": "Chains of the proteins cited; added tags and fusions are not shown. Lines headed by an entry give the natural chain unless they say otherwise; changes in a name come on top.", "UniProt Q7Z2T5": "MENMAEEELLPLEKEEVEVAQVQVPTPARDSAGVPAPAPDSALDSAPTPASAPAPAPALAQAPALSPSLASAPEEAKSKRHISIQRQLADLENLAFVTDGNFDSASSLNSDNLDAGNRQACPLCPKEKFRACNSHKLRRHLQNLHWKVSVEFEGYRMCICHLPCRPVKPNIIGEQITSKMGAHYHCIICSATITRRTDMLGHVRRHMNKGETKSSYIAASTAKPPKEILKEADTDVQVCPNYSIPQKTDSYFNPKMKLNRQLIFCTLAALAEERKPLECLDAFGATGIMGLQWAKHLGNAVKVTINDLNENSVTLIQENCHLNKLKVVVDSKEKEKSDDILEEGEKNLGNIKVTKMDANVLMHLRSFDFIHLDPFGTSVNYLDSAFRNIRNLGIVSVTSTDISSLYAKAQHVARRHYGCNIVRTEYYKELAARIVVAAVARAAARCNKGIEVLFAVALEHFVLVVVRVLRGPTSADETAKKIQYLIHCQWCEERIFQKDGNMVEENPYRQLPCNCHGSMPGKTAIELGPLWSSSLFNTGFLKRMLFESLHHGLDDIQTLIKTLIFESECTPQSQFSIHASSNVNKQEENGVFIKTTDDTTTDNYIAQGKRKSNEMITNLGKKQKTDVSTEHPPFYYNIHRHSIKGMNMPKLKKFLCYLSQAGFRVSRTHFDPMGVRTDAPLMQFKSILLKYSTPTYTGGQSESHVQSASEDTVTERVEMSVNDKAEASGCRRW", "UniProt O15164": "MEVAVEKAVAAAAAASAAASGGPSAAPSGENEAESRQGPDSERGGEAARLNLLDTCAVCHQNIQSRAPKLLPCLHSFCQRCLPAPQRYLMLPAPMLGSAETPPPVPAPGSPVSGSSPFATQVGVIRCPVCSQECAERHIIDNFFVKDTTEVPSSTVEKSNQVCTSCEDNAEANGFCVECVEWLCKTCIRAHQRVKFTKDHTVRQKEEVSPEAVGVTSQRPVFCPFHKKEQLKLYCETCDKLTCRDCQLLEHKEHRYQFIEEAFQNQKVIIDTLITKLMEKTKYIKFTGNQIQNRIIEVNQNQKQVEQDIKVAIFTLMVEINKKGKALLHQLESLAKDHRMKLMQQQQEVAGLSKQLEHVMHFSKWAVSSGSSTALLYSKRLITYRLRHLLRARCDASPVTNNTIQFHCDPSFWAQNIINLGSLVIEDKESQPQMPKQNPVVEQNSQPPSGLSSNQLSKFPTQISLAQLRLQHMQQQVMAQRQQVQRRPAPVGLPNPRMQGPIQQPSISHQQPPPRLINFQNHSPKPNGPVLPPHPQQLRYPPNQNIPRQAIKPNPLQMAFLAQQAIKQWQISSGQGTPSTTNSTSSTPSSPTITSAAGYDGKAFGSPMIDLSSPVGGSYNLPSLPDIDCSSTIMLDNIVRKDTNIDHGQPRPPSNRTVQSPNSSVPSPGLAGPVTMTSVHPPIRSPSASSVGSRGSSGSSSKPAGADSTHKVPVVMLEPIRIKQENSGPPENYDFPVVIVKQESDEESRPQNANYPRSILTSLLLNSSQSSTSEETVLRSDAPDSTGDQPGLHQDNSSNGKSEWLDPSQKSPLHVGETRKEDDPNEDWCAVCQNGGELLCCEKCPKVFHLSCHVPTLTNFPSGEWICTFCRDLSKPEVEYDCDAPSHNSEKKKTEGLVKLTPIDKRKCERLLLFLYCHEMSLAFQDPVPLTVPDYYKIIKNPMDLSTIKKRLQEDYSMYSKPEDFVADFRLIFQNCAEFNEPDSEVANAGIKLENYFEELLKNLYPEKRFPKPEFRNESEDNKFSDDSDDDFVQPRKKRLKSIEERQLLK", "UniProt Q12933": "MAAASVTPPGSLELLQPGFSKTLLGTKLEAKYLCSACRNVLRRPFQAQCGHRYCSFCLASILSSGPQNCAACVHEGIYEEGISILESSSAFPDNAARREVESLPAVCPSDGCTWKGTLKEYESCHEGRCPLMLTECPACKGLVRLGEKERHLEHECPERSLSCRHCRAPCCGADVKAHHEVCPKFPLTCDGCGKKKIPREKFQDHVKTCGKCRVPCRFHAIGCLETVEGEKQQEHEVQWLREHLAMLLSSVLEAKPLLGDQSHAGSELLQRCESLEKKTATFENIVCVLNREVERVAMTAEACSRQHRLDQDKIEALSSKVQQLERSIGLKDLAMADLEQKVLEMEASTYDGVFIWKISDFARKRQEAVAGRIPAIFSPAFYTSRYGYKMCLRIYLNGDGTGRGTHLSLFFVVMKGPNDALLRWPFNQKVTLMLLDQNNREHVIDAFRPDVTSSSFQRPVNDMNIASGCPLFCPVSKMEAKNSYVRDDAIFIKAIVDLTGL", "UniProt Q12899": "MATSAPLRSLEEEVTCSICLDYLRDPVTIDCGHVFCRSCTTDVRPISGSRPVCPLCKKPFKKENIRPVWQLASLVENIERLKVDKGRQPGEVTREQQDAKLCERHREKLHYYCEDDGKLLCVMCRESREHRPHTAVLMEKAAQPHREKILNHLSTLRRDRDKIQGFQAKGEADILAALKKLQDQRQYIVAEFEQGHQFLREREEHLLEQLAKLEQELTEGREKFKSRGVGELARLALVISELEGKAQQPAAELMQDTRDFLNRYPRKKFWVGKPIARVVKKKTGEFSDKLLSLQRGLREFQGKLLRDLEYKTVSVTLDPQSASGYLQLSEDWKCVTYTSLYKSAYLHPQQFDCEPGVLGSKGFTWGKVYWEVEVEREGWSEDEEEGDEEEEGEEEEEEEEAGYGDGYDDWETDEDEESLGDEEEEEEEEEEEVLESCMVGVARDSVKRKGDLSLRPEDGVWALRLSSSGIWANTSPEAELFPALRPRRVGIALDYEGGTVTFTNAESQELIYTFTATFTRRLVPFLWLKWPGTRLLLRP", "UniProt Q9UPN9": "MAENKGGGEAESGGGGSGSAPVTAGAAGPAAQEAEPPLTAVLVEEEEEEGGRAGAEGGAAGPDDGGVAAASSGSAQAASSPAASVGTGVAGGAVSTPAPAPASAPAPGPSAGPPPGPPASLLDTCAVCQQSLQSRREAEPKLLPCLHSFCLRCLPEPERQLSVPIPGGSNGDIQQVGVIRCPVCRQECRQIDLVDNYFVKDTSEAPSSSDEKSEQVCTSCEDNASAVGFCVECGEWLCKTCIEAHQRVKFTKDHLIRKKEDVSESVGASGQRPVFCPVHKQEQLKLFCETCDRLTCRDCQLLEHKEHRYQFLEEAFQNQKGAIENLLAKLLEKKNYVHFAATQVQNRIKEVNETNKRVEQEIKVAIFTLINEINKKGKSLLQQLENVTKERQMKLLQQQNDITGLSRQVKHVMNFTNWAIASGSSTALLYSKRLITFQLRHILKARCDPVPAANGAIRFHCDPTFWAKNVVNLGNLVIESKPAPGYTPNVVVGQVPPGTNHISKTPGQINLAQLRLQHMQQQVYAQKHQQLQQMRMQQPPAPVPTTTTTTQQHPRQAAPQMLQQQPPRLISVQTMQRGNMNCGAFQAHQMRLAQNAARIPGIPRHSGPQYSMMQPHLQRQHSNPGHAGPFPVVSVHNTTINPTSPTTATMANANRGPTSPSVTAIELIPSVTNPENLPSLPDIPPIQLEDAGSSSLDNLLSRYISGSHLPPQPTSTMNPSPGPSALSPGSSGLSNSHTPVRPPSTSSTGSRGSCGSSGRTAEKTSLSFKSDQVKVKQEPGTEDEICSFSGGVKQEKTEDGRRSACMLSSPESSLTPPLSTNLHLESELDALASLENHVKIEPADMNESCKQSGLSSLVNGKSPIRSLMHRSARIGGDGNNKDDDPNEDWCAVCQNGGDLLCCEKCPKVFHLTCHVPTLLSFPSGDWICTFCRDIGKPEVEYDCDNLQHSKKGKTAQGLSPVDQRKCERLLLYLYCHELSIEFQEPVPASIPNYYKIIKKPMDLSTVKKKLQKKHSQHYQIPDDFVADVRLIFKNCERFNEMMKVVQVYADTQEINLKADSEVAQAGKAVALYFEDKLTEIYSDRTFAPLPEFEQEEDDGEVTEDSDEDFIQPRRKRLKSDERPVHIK", "UniProt Q9NXH9": "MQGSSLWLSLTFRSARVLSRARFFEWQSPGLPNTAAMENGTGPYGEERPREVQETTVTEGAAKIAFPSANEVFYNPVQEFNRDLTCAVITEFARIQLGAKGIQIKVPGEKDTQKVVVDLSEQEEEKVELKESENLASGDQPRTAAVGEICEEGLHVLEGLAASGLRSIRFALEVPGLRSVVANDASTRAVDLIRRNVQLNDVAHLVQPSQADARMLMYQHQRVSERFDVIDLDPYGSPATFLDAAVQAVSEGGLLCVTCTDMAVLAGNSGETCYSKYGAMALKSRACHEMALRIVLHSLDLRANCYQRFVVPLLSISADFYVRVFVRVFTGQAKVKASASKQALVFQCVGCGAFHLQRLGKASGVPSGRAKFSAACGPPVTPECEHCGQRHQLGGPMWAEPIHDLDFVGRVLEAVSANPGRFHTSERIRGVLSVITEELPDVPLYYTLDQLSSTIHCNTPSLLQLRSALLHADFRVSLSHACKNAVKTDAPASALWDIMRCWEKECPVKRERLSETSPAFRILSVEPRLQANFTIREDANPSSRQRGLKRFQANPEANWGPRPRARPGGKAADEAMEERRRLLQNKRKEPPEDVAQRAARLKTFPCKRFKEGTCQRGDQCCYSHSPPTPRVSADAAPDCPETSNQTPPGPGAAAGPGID", "UniProt Q14258, whole entry, looked up": "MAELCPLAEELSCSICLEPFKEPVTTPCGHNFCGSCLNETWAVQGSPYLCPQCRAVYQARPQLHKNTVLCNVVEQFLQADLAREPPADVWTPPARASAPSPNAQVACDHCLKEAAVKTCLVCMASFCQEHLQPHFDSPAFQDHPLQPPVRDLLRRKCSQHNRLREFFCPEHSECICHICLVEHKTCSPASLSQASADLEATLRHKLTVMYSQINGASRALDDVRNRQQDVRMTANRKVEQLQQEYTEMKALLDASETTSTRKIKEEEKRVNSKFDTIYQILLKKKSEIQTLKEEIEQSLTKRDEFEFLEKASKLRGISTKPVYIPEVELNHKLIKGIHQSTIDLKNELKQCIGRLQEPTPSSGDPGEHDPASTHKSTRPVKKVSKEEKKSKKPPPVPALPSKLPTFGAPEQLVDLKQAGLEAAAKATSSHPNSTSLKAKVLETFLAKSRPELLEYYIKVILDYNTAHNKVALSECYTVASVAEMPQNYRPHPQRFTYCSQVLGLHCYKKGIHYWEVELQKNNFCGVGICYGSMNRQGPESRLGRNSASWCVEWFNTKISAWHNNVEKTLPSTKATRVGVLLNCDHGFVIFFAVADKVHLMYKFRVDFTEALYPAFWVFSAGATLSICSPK", "UniProt Q9Y4K3": "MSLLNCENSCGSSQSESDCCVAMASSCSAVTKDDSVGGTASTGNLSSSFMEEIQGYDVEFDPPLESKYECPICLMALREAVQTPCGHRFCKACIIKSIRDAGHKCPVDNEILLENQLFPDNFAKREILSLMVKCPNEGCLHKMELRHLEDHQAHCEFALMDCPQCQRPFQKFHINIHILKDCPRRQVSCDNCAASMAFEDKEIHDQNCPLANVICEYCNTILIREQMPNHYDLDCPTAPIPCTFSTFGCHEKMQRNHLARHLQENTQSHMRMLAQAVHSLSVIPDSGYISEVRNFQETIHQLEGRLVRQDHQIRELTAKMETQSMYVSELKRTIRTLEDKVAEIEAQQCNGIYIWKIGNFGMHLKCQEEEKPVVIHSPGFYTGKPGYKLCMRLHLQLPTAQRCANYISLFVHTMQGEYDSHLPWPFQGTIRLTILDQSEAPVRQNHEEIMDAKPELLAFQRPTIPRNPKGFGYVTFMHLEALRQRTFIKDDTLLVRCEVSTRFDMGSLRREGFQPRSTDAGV", "UniProt Q4KMQ1": "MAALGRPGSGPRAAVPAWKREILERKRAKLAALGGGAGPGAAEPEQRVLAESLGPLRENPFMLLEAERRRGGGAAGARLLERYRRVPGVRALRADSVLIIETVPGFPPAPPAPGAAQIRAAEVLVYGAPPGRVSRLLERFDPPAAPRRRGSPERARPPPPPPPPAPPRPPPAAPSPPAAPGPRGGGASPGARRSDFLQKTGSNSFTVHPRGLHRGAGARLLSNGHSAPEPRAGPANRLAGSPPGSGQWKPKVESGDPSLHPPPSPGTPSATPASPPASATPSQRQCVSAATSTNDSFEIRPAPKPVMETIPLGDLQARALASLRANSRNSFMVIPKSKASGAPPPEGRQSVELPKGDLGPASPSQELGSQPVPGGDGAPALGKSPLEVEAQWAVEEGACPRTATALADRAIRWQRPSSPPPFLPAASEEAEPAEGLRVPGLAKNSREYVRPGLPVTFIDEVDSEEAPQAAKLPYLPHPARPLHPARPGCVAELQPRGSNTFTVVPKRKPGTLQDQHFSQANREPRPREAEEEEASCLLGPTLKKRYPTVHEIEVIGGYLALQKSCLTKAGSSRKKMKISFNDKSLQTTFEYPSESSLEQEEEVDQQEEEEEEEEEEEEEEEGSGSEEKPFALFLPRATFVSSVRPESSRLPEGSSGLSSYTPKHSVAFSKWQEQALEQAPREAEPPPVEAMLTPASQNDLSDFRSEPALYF"}, "source": "the supplement of paper PMC12067093", "about": "“Discovery and optimisation of a covalent ligand for TRIM25 and its application to targeted protein ubiquitination” (Chemical Science, 2025)", "note": "Some of the results follow.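 Also: competitive chemoproteomic profiling in live THP-1 cells with an iodoacetamide desthiobiotin (IA-DTB) probe, comparing probe-labelled peptide intensities in compound-treated cells against DMSO-treated controls.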"}
{"compound": "CC1Cc2ccccc2N1C(=O)C1CCCN(C1)C(=O)CCl (mixture of isomers) [TRIM25 ligand 11 (diastereomer mixture)]", "assay": "probe-labelled cysteine peptide fold change vs DMSO (competition) (log2 fold change); higher = less target engagement (more negative = stronger competition)", "details": "50 µM; THP-1; incubation time: 4 h"}
{"target": "TRIP6_Q15654_362+365+368_AYHPGCFTCVVCHR (UniProt Q15654)", "probe-labelled cysteine peptide fold change": 0.0784}
{"target": "TRAPPC9_Q96Q05_1035_EAVAACQVGDPVR (UniProt Q96Q05)", "probe-labelled cysteine peptide fold change": -0.0879}
{"target": "TRMT1L_Q7Z2T5_265_QLIFCTLAALAEER (UniProt Q7Z2T5)", "probe-labelled cysteine peptide fold change": 0.115}
{"target": "TRIM24_O15164_73_LLPCLHSFCQR (UniProt O15164)", "probe-labelled cysteine peptide fold change": -0.0214}
{"target": "TRAF2_Q12933_182_AHHEVCPK (UniProt Q12933)", "probe-labelled cysteine peptide fold change": 0.0309}
{"target": "TRIM26_Q12899_36_DPVTIDCGHVFCR (UniProt Q12899)", "probe-labelled cysteine peptide fold change": 0.166}
{"target": "TRAPPC10_P48553_729_CSHVTLEPGANQITFR (UniProt P48553)", "probe-labelled cysteine peptide fold change": -0.0374}
{"target": "TRIM11_Q96F44_236_CQLPALGLLQDIK (UniProt Q96F44)", "probe-labelled cysteine peptide fold change": 0.153}
{"target": "TRIM33_Q9UPN9_582_GNMNCGAFQAHQMR (UniProt Q9UPN9)", "probe-labelled cysteine peptide fold change": -0.266}
{"target": "TRIM28_Q13263_717_VLLALFCHEPCRPLHQLATDSTFSLDQPGGTLDLTLIR (UniProt Q13263)", "probe-labelled cysteine peptide fold change": 0.0654}
{"target": "TRIM24_O15164_127+134_CPVCSQECAER (UniProt O15164)", "probe-labelled cysteine peptide fold change": 0.0149}
{"target": "TRERF1_Q96PN7_514_LTCSICLK (UniProt Q96PN7)", "probe-labelled cysteine peptide fold change": 0.0958}
{"target": "TRMT1_Q9NXH9_150_TAAVGEICEEGLHVLEGLAASGLR (UniProt Q9NXH9)", "probe-labelled cysteine peptide fold change": -0.0776}
{"target": "TPP1_O14773_365_GLTLLFASGDSGAGCWSVSGR (UniProt O14773)", "probe-labelled cysteine peptide fold change": 0.117}
{"target": "TRIM25_Q14258_176_LREFFCPEHSECICHICLVEHK (UniProt Q14258)", "probe-labelled cysteine peptide fold change": 0.102}
{"target": "TRIM25_Q14258_176_EFFCPEHSECICHICLVEHK (UniProt Q14258)", "probe-labelled cysteine peptide fold change": 0.153}
{"target": "TRAF6_Q9Y4K3_85_EAVQTPCGHR (UniProt Q9Y4K3)", "probe-labelled cysteine peptide fold change": 0.016}
{"target": "TRMT1_Q9NXH9_351_QALVFQCVGCGAFHLQR (UniProt Q9NXH9)", "probe-labelled cysteine peptide fold change": 0.318}
{"target": "TRIP12_Q14669_1411_DCVGGK (UniProt Q14669)", "probe-labelled cysteine peptide fold change": -0.148}
{"target": "TRIM25_Q14258_506_FTYCSQVLGLHCYK (UniProt Q14258)", "probe-labelled cysteine peptide fold change": -0.287}
{"target": "TRAPPC8_Q9Y2L5_1330+1341_SLCLVPVTLLLSNCSK (UniProt Q9Y2L5)", "probe-labelled cysteine peptide fold change": -0.276}
{"target": "TRA2A_Q13595_120_ANPDPNTCLGVFGLSLYTTER (UniProt Q13595)", "probe-labelled cysteine peptide fold change": -0.0966}
{"target": "TRIP6_Q15654_307_VFHVGCFVCSTCR (UniProt Q15654)", "probe-labelled cysteine peptide fold change": 0.0758}
{"target": "TRAF6_Q9Y4K3_134_CPNEGCLHK (UniProt Q9Y4K3)", "probe-labelled cysteine peptide fold change": -0.0317}
{"target": "TRAF7_Q6Q0C0_282_YGCTFIGNQDTYETHLETCR (UniProt Q6Q0C0)", "probe-labelled cysteine peptide fold change": 0.413}
{"target": "TRIP6_Q15654_282_LVHDMNHPPSGEYFGQCGGCGEDVVGDGAGVVALDR (UniProt Q15654)", "probe-labelled cysteine peptide fold change": 0.0644}
{"target": "TRMT1L_Q7Z2T5_491_KIQYLIHCQWCEER (UniProt Q7Z2T5)", "probe-labelled cysteine peptide fold change": 0.234}
{"target": "TRIM33_Q9UPN9_145+150_LLPCLHSFCLR (UniProt Q9UPN9)", "probe-labelled cysteine peptide fold change": -0.233}
{"target": "TPP2_P29144_967_GAGPGCYLAGSLTLSK (UniProt P29144)", "probe-labelled cysteine peptide fold change": -0.007}
{"target": "TRIOBP_Q9H2D6_2233_CQQEGQELLR (UniProt Q9H2D6)", "probe-labelled cysteine peptide fold change": 0.0303}
{"target": "TRIM28_Q13263_221_HEPLVLFCESCDTLTCR (UniProt Q13263)", "probe-labelled cysteine peptide fold change": 0.0632}
{"target": "TRIM33_Q9UPN9_153_CLPEPER (UniProt Q9UPN9)", "probe-labelled cysteine peptide fold change": 0.0362}
{"target": "TRAPPC4_Q9Y296_195_CELFDQNLK (UniProt Q9Y296)", "probe-labelled cysteine peptide fold change": 0.214}
{"target": "TPRN_Q4KMQ1_399_SPLEVEAQWAVEEGACPR (UniProt Q4KMQ1)", "probe-labelled cysteine peptide fold change": -0.344}
{"target": "TRA2B_P62995_118+119_ANPDPNCCLGVFGLSLYTTER (UniProt P62995)", "probe-labelled cysteine peptide fold change": -0.0866}
{"target": "TRIM25_Q14258_107_ASAPSPNAQVACDHCLK (UniProt Q14258)", "probe-labelled cysteine peptide fold change": 0.0844}
{"target": "TRMT10C_Q7L0Y3_246_NVDPFHIYFCNLK (UniProt Q7L0Y3)", "probe-labelled cysteine peptide fold change": -0.00461}
{"target": "TRIM36_Q9NQ86_521_CGYNNEHLLLNLKR (UniProt Q9NQ86)", "probe-labelled cysteine peptide fold change": -0.25}
{"target": "TRAFD1_O14545_83_KHEETECPLR (UniProt O14545)", "probe-labelled cysteine peptide fold change": 0.0777}
